The other results are listed elsewhere or left out.

Protein sequences, listed by entry. Tags and fused reporters are not part of them.
UniProt Q0JBA9, entry or part of it: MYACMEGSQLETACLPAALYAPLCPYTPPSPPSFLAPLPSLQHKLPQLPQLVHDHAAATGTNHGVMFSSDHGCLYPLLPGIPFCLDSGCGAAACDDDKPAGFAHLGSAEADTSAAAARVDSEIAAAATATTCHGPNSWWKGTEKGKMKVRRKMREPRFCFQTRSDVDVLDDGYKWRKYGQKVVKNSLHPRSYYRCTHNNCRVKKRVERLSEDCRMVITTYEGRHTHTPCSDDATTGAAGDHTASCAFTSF

The test concerns the target OsWRKY34 (Oryza sativa, UniProt Q0JBA9 1-250). Briefly: protein-binding microarray (RPBM); PBS, 2% BSA, 51.3 ng/ul salmon testes DNA, 50 uM zinc acetate, 200 nM TF, 25 C, 1 h; high values mean tight binding. The settings on record: protein: recombinant; tags: N-terminal polyhistidine and DsRed monomer fusion (pET32a); label: CyDye5-dUTP incorporated in the synthesized complementary strand; 3' TTTTT single-stranded linker to array surface; dsDNA, one strand shown. The method, boiled down:
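Per-feature fluorescence intensity (arbitrary units), read on an Axon 4000B scanner, is the binding signal. Transcription factors carrying an N-terminal polyhistidine tag and DsRed fusion were expressed in E. coli BL21-CodonPlus and purified on Ni–NTA. A custom Agilent array, made double-stranded by primer extension with Cy5-dUTP and blocked with 2% BSA, was incubated with 200 nM protein in PBS, 2% BSA, salmon testes DNA and 50 µM zinc acetate at 25 °C for 1 h and then washed.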
With “AAAGAGAAACCCTTCAAAACCTCGGCTCCTCGTTCTCCCACGGAGTCACCTAGTGCAG”, the binding signal is 8460 fluorescence intensity (a.u.). For the sequence “GTTCAACATGTCAACCGCTTGTTCTTGTACTTGAGTGGAACGGAGTCACCTAGTGCAG”, the binding signal is 8890 fluorescence intensity (a.u.).

In the case of “TGCGTGATTTTTTTATTAAGGTCTCACAGTTACAATTTAGCGGAGTCACCTAGTGCAG”, the binding signal is 8740 fluorescence intensity (a.u.). Under “GTAGAGTGTAGTTTCTATTGTGATGTCTTATTGACATGGCCGGAGTCACCTAGTGCAG” stands 8070 fluorescence intensity (a.u.). As for “ACATCTGGTGGTGCAGGGGTATTTTAGTCATTTCACGAGTCGGAGTCACCTAGTGCAG”, the figure is 8930 fluorescence intensity (a.u.); as for “GTGAACTTCAACATGATGCTATTACATTTTTACACACTGACGGAGTCACCTAGTGCAG”, 9720 fluorescence intensity (a.u.).

As to “TCACGTTTGACCGTTCGTTTTATTTGAAATTTTTTTACGACGGAGTCACCTAGTGCAG”, the binding signal is 10300 fluorescence intensity (a.u.). Regarding “TGGGACCCACGTAAGCCCCACATGTCAGCCTGTCCACGTCCGGAGTCACCTAGTGCAG”, the binding signal is 9010 fluorescence intensity (a.u.).

For the sequence “CGTCTCATTTTAAATACAATTGTGGGTTTATTGTCCAACGCGGAGTCACCTAGTGCAG”, the binding signal is 8670 fluorescence intensity (a.u.).

“ACATTGATACTTGATGATACTCGTTGATATTTGCTTATACCGGAGTCACCTAGTGCAG”: the binding signal was 9090 fluorescence intensity (a.u.).

Take “CAATCATGCTTCTGTTAACCGCTTCTGTTAACCCTTAGTACGGAGTCACCTAGTGCAG”: the binding signal is 11200 fluorescence intensity (a.u.). Under “CCGACACTTGGACCGTGACGCCCAATTGGTCCTTTGACCGCGGAGTCACCTAGTGCAG” stands 8570 fluorescence intensity (a.u.); under “TTCATTCATATGGTGTAACTTTTTGTCGCTGTAGGATCGCCGGAGTCACCTAGTGCAG”, 8130 fluorescence intensity (a.u.); under “AAGATTTTTCACGCTCTCTCTCTCTCTCTCTCTCTCTCCTCGGAGTCACCTAGTGCAG”, 10400 fluorescence intensity (a.u.).

With “CATCGCCGCCACCTCCATTGATCTCTTCACCGGTGAAGAACGGAGTCACCTAGTGCAG”, the binding signal was 8710 fluorescence intensity (a.u.). As for “CCGCCGTCCGCCGCCATCCTCGGTGCCGCCGTGGCCTGTGCGGAGTCACCTAGTGCAG”, the figure is 9120 fluorescence intensity (a.u.); as for “TCACAAAATGTACATCTCTTATATAGTTGGTCATTTCTTCCGGAGTCACCTAGTGCAG”, 8640 fluorescence intensity (a.u.); as for “ACTGCGCACACTCTCCAAGTTGCAAGTAGTGTGTGTTGACCGGAGTCACCTAGTGCAG”, 8450 fluorescence intensity (a.u.). In the case of “CCGAAACTCTGTTCTTTCTTCCTTTTGGCCCAATCCTTTTCGGAGTCACCTAGTGCAG”, the binding signal is 11000 fluorescence intensity (a.u.).

For the sequence “ATCTGGATTCCTTTGCTTATCCTTTCTGGCTATAATCTCTCGGAGTCACCTAGTGCAG”, the binding signal is 9330 fluorescence intensity (a.u.).

“GTCACCGCCGCCGCCATTCCCGACGAGGAGAAGCTCCGCACGGAGTCACCTAGTGCAG”: the binding signal was 8610 fluorescence intensity (a.u.). Under “TCATCTGCCTTCACTCCTCCTCATCGTCTTTTTTTTTTTTCGGAGTCACCTAGTGCAG” stands 9750 fluorescence intensity (a.u.). For the sequence “CCCATTCGTACTGATTCATCCGGCCCGTTTGATGGCCTTCCGGAGTCACCTAGTGCAG”, the binding signal is 11600 fluorescence intensity (a.u.). Under “TGTGTTTTTCGCCAACGAGGTTTTTCGAGCATTCCCATAGCGGAGTCACCTAGTGCAG” stands 8030 fluorescence intensity (a.u.); under “TGTTGGTGGTGAGGTGTGAGGTGAGGTGGGGTGGTGTGGCCGGAGTCACCTAGTGCAG”, 10100 fluorescence intensity (a.u.); under “AATTAGTCACACGTAAAATATTATTCATGTTTTATCATCTCGGAGTCACCTAGTGCAG”, 8750 fluorescence intensity (a.u.). As for “TCCACCCATCGTTCTCATGACCTGCCAACCCCATCCCAGCCGGAGTCACCTAGTGCAG”, the figure is 10000 fluorescence intensity (a.u.); as for “CAGGCGCATTCAATTCTCCCATTTACCATCGCCACCTACACGGAGTCACCTAGTGCAG”, 8590 fluorescence intensity (a.u.). As for “ATTTCTTCCATATTACTTGGTGGTTTTATTTTCCTATTAGCGGAGTCACCTAGTGCAG”, the figure is 11200 fluorescence intensity (a.u.); as for “CGCCACCGCCTCCGCCCTTAGCTGCACGACACACTCCAACCGGAGTCACCTAGTGCAG”, 8760 fluorescence intensity (a.u.). Regarding “CACTGTCATGTCCTGTGCACTCTTCATGCGACCATTACTCCGGAGTCACCTAGTGCAG”, the binding signal is 11100 fluorescence intensity (a.u.). With “AAAGTCATACCACCTTACTTTTTACGTTTGAATCACCATTCGGAGTCACCTAGTGCAG”, the binding signal is 8510 fluorescence intensity (a.u.).

With “GATCTATATATATGGTGTGTGTCCTCACTATCCGAAGGAACGGAGTCACCTAGTGCAG”, the binding signal was 10600 fluorescence intensity (a.u.). Regarding “TCCACACTGCACTATGCCACTATGTACTGGTTATCTTCTTCGGAGTCACCTAGTGCAG”, the binding signal was 10800 fluorescence intensity (a.u.). Under “GTCACTCACTCTACGCGACTACTACTACATCGCGCCTCTCCGGAGTCACCTAGTGCAG” stands 8100 fluorescence intensity (a.u.); under “GTTTTTTATTCGTGTCAAAACCTCTTCTGAATGAACATTTCGGAGTCACCTAGTGCAG”, 9240 fluorescence intensity (a.u.).

In the case of “GATCTCCTCATGCCCTCGGCTGAACACATTGCGTTTGAAACGGAGTCACCTAGTGCAG”, the binding signal was 8400 fluorescence intensity (a.u.). As for “CCGCATCATATTCTGTTCCCCACCGCATCCTCCTCCGTTTCGGAGTCACCTAGTGCAG”, the binding signal was 9000 fluorescence intensity (a.u.). As for “TCTACTGATTTATATTCTTGTCTTATCACATTATCACCATCGGAGTCACCTAGTGCAG”, the figure is 8230 fluorescence intensity (a.u.).

In the case of “CCACAGGGGCAAAATCGTCATTCTCCATCCCCGTTGCAATCGGAGTCACCTAGTGCAG”, the binding signal was 9310 fluorescence intensity (a.u.). As to “GGTGTACTCCTTTTAATACCACGCGGCTCTTCCGCGGACACGGAGTCACCTAGTGCAG”, the binding signal is 9070 fluorescence intensity (a.u.). As for “AATCCTACACATTATTTTTATTTATTGTTACCATACTAAACGGAGTCACCTAGTGCAG”, the figure is 8070 fluorescence intensity (a.u.); as for “TTTTGTCATTGCCGACTGATGCTTAATCACATTGTTGCGCCGGAGTCACCTAGTGCAG”, 9120 fluorescence intensity (a.u.); as for “CTCACTGCACTGTCCCAGATCTCTCATTAATCCAACCCAGCGGAGTCACCTAGTGCAG”, 8580 fluorescence intensity (a.u.). Under “TGAGGGGTGTTATTGGACAAAGGGCAGTAGTTAGGAGAAGCGGAGTCACCTAGTGCAG” stands 10400 fluorescence intensity (a.u.); under “GTTCTGCGCCGTCTCGCCGGTCTCCATCTCCATCACCGGACGGAGTCACCTAGTGCAG”, 8810 fluorescence intensity (a.u.); under “ATCCAAATCAACGGTCCAACATTACTTGCCAGTTAGCCACCGGAGTCACCTAGTGCAG”, 8700 fluorescence intensity (a.u.).

On to “TTTGGCGCTGGTTAATATCCTAGTATGTTTCTTTGTCCCTCGGAGTCACCTAGTGCAG”, for which the binding signal is 8880 fluorescence intensity (a.u.). On to “CATACTATAAACATGCTGGGCTGTGAGGACCTTGCTTTTCCGGAGTCACCTAGTGCAG”, for which the binding signal was 8070 fluorescence intensity (a.u.). As for “GTGCGCCGGCGTGTGGTGGTGGGTGTGTAAGGGTAGGTGGCGGAGTCACCTAGTGCAG”, the figure is 8800 fluorescence intensity (a.u.); as for “ACATGTTGTCACCCTATAGGCAATTGGATGGACCACACACCGGAGTCACCTAGTGCAG”, 8400 fluorescence intensity (a.u.). Under “GATTGATTCCCTTTCTCCTCCGGAGTTGTCTTCTCCTCAGCGGAGTCACCTAGTGCAG” stands 8910 fluorescence intensity (a.u.); under “AATTTATGGAGATCATTTTTTTTCTGTTTCAAAGGAAAAACGGAGTCACCTAGTGCAG”, 19200 fluorescence intensity (a.u.). Under “ACCAAAGGTCCAGTATTTACCACTTAATTAACACTGCTAGCGGAGTCACCTAGTGCAG” stands 9810 fluorescence intensity (a.u.).
